The results in this text go back to article PMC11423144.

Chains of the proteins cited; added tags and fusions are not shown.
UniProt P11142: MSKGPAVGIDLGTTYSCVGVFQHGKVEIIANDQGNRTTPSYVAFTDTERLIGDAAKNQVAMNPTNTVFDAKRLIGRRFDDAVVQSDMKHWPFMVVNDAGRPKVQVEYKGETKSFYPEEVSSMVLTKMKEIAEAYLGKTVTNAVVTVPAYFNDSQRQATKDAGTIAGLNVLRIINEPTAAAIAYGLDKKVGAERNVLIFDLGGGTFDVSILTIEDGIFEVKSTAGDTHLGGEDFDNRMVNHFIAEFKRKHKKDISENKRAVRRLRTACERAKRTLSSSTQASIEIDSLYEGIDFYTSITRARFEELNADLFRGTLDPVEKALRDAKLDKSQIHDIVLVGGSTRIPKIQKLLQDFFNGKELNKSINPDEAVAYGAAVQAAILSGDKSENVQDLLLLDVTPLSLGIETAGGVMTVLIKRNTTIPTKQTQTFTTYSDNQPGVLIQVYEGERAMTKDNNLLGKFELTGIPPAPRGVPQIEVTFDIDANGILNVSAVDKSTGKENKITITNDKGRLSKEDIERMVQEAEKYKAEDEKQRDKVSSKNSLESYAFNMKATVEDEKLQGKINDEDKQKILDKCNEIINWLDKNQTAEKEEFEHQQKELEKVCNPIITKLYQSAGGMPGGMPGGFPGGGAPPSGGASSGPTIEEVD

Results are given in words; binding and its absence hold for the method and conditions named. In cells and extracts the contact can be indirect. Some entries that bind do so weakly or less than the wild type. Where a sequence is shown, tags or fusion partners need not be part of it.

This test addresses T1, human SHISA3 (human) (UniProt A0PJX4).
T1 sequence: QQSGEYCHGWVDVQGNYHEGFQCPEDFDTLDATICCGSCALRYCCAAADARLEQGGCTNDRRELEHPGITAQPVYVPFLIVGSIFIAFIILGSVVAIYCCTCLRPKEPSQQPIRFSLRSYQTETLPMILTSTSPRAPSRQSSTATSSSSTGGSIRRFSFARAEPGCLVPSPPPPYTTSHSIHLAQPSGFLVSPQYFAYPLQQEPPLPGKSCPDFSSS
In words: co-IP; human SHISA3 and candidate interacting proteins in HEK-293T cells; immunoprecipitation from lysate, immunoblot. (In general: A western blot detects proteins with antibodies after separation by electrophoresis.)

Regarding “Hspa8 (HEK-293T experiment) (from UniProt P11142 1-646)”, the binding entry was “binds”.
